# Publication PMC8572004
# Amino acid sequences for entries named in this document (tags omitted). A change or cut given only in a name is not applied to a line headed by its entry.
# UniProt Q9VBP2: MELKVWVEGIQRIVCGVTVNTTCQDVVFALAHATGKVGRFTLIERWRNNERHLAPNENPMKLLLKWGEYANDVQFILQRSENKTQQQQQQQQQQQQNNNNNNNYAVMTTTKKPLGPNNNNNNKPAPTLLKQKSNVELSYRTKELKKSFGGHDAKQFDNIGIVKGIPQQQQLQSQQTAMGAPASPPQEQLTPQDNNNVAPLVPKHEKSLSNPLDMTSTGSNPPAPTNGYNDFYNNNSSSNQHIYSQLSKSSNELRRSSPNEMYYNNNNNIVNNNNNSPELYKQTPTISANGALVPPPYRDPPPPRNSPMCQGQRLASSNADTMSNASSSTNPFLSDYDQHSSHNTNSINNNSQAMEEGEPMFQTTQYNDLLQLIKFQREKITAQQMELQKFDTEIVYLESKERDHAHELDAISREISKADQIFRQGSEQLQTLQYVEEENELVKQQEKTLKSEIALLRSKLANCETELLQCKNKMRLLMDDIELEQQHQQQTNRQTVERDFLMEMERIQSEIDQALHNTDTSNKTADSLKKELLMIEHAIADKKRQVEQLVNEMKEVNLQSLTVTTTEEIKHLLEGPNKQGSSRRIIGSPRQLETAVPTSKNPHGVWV
# Results are given in words; binding and its absence hold for the method and conditions named. A result given as binding can be weak or reduced; the word gives no strength. For part of these data: In cells and extracts the contact can be indirect. For part of these data: Where a sequence is shown, tags or fusion partners need not be part of it.
# Key:
# [1] = target: HA-tagged RASSF8 (Drosophila); assay: co-IP; two constructs co-expressed in S2 cells; HEPES lysis buffer (50 mM HEPES pH 7.4, 150 mM NaCl, 0.5% Triton X-100); Protein A/G sepharose and antibodies, 2 h at 4°C; immunoblot
# [2] = target: full-length Drosophila RASSF8, LexA fusion (two-hybrid bait) (Drosophila) (UniProt Q9VBP2); assay: two-hybrid; screen by Hybrigenics; full-length RASSF8 as LexA fusion in pB29 as bait; Drosophila whole-embryo cDNA collection (RP2) as prey
binding [1],binding [2],Binder
binds,–,"Myc-tagged Sec15 (protein, UniProt Q9VDE6 1-766) MSKVTVQDIEAVDDYWGPTFRSILEGNNTKQIGDQLEQRIRSHDKEIERICNLYYQGFIDSIQELLQVRTQAQQLHNEVHSLDTSLRQISASLIQQGNDLVRARQIESNLASAIEALKSCLPALECYMKFTQQAKNKQYYQALRTLETLETEHLTRLKTHNYRFATQMQIQIPIIKENIRRSSASDFREFLENIRKFSPRIGELAITHTKQLQKRDINAIIAEHMQQMNGGEAGGAGAGGDDDGANVSAQDLIDFSPIYRCLHIYMVLGQREYFEKDYRQQRRDQAKLVLQPPPNMHDNLEAYKTYICAIVGFFVVEDHVKNTAGDVVTSSYLEDLWSSSLTKFVNEISMSSSSCTDPNILLRIKNLIMLSINTFKCYGYTVNILWELLHNMRDHYNEVLLQRWVHVFREILDKEQFLPMVVQNTEEYECIIERFPFHSEQLENAPFPKKFPFSRMVPEVYHQAKEFMYACMKFAEELTLSPNEVAAMVRKAANLLLTRSFSGCLSVVFRQPSITLTQLIQIIIDTQYLEKAGPFLDEFVCHMTNTERSVSQTPSAMFHVARQDAEKQVGLRICSKIDEFFELSAYDWLLVEPPGIASAFITDMISYLKSTFDSFAFKLPHIAQAACRRTFEHIAEKIYSIMYDEDVKQISTGALTQINLDLMQCEFFAASEPVPGLKEGELSKYFLRNRQLLDLLILEEWSTYFHDYGKQENRYHLVQPQSIIVILEKIREADKKPIFSLVRKNDKKKLLETVLKQLKHIADRQN"
–,binds,"Sec15 (amino acids 59-234), two-hybrid prey (domain or fragment, UniProt Q9VDE6 59-234) IDSIQELLQVRTQAQQLHNEVHSLDTSLRQISASLIQQGNDLVRARQIESNLASAIEALKSCLPALECYMKFTQQAKNKQYYQALRTLETLETEHLTRLKTHNYRFATQMQIQIPIIKENIRRSSASDFREFLENIRKFSPRIGELAITHTKQLQKRDINAIIAEHMQQMNGGEAG"
no binding,–,"Myc-tagged Sec5 (protein, UniProt Q9VQQ9 1-894) MAPQPVVTGLSPKEGPPGTRVIIRGEFLGTRVQDLIGLKICGSDCLLSAEWKSPNKIIARTGPAKGKGDIIVTTLSGGVGTSTVQFRAYHETIGPLKESAVWIEESPSQNFAWGRRTLAQSGLTQEDPLGLSIEGNEQKIPEDLRDLFPEACGDLSQEHFSPAWFLLENHLATSFEDLKAGLSYLKRKVESQKEGQLSFLKSNAGSVIDQLDTLMNIRDKLQEDVKLHGNETLNILETSIENSISESQKIFTDVLVRKEKADSTRSVLFALSRHKFLFCLPNSVDRRAKAGEYDIVVNDYSRAKNLFGKTEIPIFRKVLEEVDHRILSIRKQLHEKVVKMPQSVEQQKKLIKALISLELQQSGTPIGDKLRNIDPAWDAIEARAKYLEWTFRQTFDQHTSKDSGAQEKAKNRDSSQAPNRVNFCEELCDIAASQLPDLWRLGQLYFTGELRGPHDPKPGDFKRMVLNAIEKFCVYLRLAILIATDQRALRQSSGLAWPIGSASATHQFLPWIPQCLRFTRIAYATLISLDLPSEALDIIQKLIDEVRLFCFSIIFKRATDRCKKLGSQETWELGVEEYPGATLLPAALETLLIETLDEVQSVCMQRETREGNLLEPQSDGQREVTQRLQEFLSAFSAVIEELAFHSHDEETPTHNVSQLLGFPNAQQPDSVAGSGGAAAVTWEQRMLCCLANYAYCNKIFFPRLGDIFVRYGYPLPTLAIETARYTVNQLFTNLLEEYVEHKGDPLVGTIEPSMYLGRFQWDHEMEIGQLRPYAHECCDNLVGVYSEIYSISPALLRPILESIVQTISEELARLMSCVQRFSFTGAIQAHVDIRLLRDSLEGYVNETAKNYFMEALEAINPPLSGEQKRKADEILERVKRNMRLQLLCFSVKDP"
